Laboratory results: the supplement of paper PMC3334620
Over roughly 33,000 sequences, “E-score (-0.5 to 0.5)” has its median near -0.015; the highest 2% begin near 0.3. Some of the results follow.

target: T1, Abf1 (UniProt P14164); assay: PBM E-score (8-mer binding enrichment) (E-score (-0.5 to 0.5)); higher = stronger / more preferred TF binding; conditions: protein concentration: 200 nM; construct: GST-full length
T1 sequence: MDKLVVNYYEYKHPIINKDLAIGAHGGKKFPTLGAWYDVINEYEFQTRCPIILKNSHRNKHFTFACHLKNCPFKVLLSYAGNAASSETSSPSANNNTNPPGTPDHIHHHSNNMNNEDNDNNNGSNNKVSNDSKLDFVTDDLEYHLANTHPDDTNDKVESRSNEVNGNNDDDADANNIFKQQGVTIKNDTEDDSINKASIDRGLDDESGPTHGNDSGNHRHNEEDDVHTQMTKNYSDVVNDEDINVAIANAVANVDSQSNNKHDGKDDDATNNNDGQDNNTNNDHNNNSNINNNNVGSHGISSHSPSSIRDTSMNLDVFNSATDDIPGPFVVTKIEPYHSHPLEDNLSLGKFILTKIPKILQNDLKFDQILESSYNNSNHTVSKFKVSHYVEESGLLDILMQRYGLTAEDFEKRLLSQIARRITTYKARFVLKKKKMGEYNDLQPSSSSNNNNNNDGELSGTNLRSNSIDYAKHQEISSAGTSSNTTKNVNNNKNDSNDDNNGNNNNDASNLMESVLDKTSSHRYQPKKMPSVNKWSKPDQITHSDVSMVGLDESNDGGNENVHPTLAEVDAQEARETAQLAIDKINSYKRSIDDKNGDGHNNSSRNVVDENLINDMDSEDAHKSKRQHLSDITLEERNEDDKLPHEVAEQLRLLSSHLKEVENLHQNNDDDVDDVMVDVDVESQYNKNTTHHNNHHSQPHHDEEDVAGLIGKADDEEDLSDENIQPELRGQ
Method in brief: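 The E-score, a modified Wilcoxon-Mann-Whitney statistic, was computed by the Universal PBM Analysis Suite for every ungapped eight-base word pooled with its reverse complement. Scans behind it were normalised with masliner after bound GST-tagged yeast transcription factors were detected with fluorescent anti-GST. The proteins, at about 100-200 nM, had been applied to universal all-10-mer Agilent arrays made double-stranded by primer extension.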

Compared with CCCCTACC, AGCCACAG is higher in “PBM E-score” value: -0.163 for the first, -0.103 for the second.

Compared with CGATGCTC, TAAACGGA is higher in “PBM E-score” value: -0.186 for the first, 0.133 for the second.

Going from TCACTGCA to ATGCTGAC, the “PBM E-score” value falls from 0.214 to -0.0732.

Going from ACAAGCAT to GAAGTAGA, the “PBM E-score” value falls from 0.115 to 0.0549.

Compared with CGATACGA, ATCATTTG is higher in “PBM E-score” value: 0.109 for the first, 0.276 for the second.

First: GGGTAATA
Second: AATAAGAT
The “PBM E-score” value of the first is lower: -0.00728 for the first, 0.107 for the second.

Going from TGGGTACA to TAGCGTGA, the “PBM E-score” value falls from 0.0397 to 0.00907.

Going from ACTTTTAT to CGGCTCGC, the “PBM E-score” value falls from 0.0154 to -0.0178.

Going from CATTGAAG to TTAGCGAA, the “PBM E-score” value rises from -0.133 to 0.0503.

Compared with GATATGTA, CCCTACTA is lower in “PBM E-score” value: 0.152 for the first, -0.127 for the second.

Going from CAGCAAAC to GTTAGGAA, the “PBM E-score” value falls from -0.0634 to -0.133.

Compared with TCCGGAAA, CGCACCCG is higher in “PBM E-score” value: -0.0899 for the first, 0.034 for the second.

Going from TCGACGAA to GCCAGCAC, the “PBM E-score” value falls from 0.349 to -0.0263.

Compared with TAGACGCA, ACTTAAAC is higher in “PBM E-score” value: 0.0635 for the first, 0.129 for the second.

First: CAACTACC
Second: CGAGCGCA
The “PBM E-score” value of the first is lower: -0.0382 for the first, 0.155 for the second.

First: ATGCCCGC
Second: CACATGAG
The “PBM E-score” value of the first is higher: -0.12 for the first, -0.234 for the second.

First: CCGGGCGC
Second: CATGAAAG
The “PBM E-score” value of the first is lower: -0.151 for the first, 0.0673 for the second.

Compared with CATACGGA, AGCGAGGA is lower in “PBM E-score” value: 0.295 for the first, -0.12 for the second.

First: ATGTGTTC
Second: GCTGCAAC
The “PBM E-score” value of the first is lower: -0.0352 for the first, -0.0148 for the second.

Compared with GCGCAAAC, AGGGCAAA is lower in “PBM E-score” value: 0.0443 for the first, -0.143 for the second.

Going from AGGACGGA to GCATAATA, the “PBM E-score” value rises from -0.0392 to 0.192.

Compared with AAGCAGGG, AAACCGAG is lower in “PBM E-score” value: 0.00394 for the first, -0.0363 for the second.

Compared with ATGACACG, AGCGTCGC is lower in “PBM E-score” value: 0.118 for the first, -0.00567 for the second.

Compared with CCGGGCGA, CACTAAAC is higher in “PBM E-score” value: 0.0279 for the first, 0.139 for the second.

First: AAACGGCG
Second: AGTGTAAT
The “PBM E-score” value of the first is higher: 0.206 for the first, 0.0847 for the second.

First: ACAATTTG
Second: AAACTGTA
The “PBM E-score” value of the first is higher: 0.11 for the first, 0.0591 for the second.

First: GGTGGGGA
Second: AAATATAA
The “PBM E-score” value of the first is lower: -0.108 for the first, 0.136 for the second.

Going from CCACGAGG to CTGTCCAC, the “PBM E-score” value falls from 0.081 to -0.0164.

Going from ACTACAGC to AGTACAAT, the “PBM E-score” value rises from -0.156 to 0.0906.

First: AGACTTGA
Second: GCATGCGC
The “PBM E-score” value of the first is higher: -0.0542 for the first, -0.0816 for the second.

First: CGTCTCCC
Second: AACACGCA
The “PBM E-score” value of the first is higher: 0.158 for the first, -0.0592 for the second.

Compared with TGTTGGAA, CATGCCCC is lower in “PBM E-score” value: -0.0967 for the first, -0.22 for the second.

Compared with GGCTCAAC, AGCGGGTA is lower in “PBM E-score” value: -0.0452 for the first, -0.215 for the second.

Going from TGTGCAAA to CATATCTA, the “PBM E-score” value rises from -0.137 to 0.162.

First: CCGAAATC
Second: CCCTTACG
The “PBM E-score” value of the first is higher: 0.0401 for the first, -0.0713 for the second.

Compared with CGTCTTAC, GGGCAGAA is lower in “PBM E-score” value: 0.199 for the first, 0.0406 for the second.

Going from AGACGCAA to GCAGAGGC, the “PBM E-score” value falls from -0.044 to -0.255.

Going from AAATAACG to ATCGCCTG, the “PBM E-score” value falls from 0.171 to -0.127.

Going from CGGGCGAG to CTCGTAGC, the “PBM E-score” value rises from -0.0337 to 0.0542.

Going from ATCTGTTC to GGATTCTA, the “PBM E-score” value rises from -0.016 to 0.029.

Going from CACTTTAG to ATTGAGAC, the “PBM E-score” value rises from -0.178 to 0.106.

Going from GGATGTAA to ATCGCAGG, the “PBM E-score” value rises from 0.0326 to 0.0596.

Going from AGCAGATC to ATATTTGC, the “PBM E-score” value rises from 0.0833 to 0.194.

Going from GAGCGTGC to AGAATCCG, the “PBM E-score” value falls from 0.0109 to -0.0715.

Compared with AATCTTCT, TCGGGAGA is lower in “PBM E-score” value: 0.0766 for the first, -0.127 for the second.

First: CAAGGAGG
Second: ATGCCCCA
The “PBM E-score” value of the first is lower: -0.25 for the first, -0.153 for the second.

Going from CGACTAGC to CTGTCTTA, the “PBM E-score” value rises from -0.0426 to 0.0626.

Going from AGACACGG to AGCCGAGA, the “PBM E-score” value falls from 0.11 to -0.0902.

First: GGCACCCC
Second: AACATCTG
The “PBM E-score” value of the first is lower: -0.299 for the first, -0.0273 for the second.

Going from CTGCGAAG to AACAGAGC, the “PBM E-score” value rises from -0.0967 to -0.0439.

Going from CTGTGACA to CCGCTGCA, the “PBM E-score” value falls from 0.179 to -0.144.

Compared with ATCAGGAA, ATAGACGC is lower in “PBM E-score” value: 0.0324 for the first, -0.0898 for the second.

Compared with AAGATCAT, CTAAGTTA is lower in “PBM E-score” value: 0.289 for the first, 0.131 for the second.

First: CCTCTGAC
Second: CGAGCCAC
The “PBM E-score” value of the first is lower: -0.306 for the first, -0.0571 for the second.

Going from CAACAACC to CGCGCAAG, the “PBM E-score” value falls from 0.0708 to -0.009.

Going from TCCTCAGA to ACATTTTG, the “PBM E-score” value rises from -0.125 to 0.0732.

Going from ACGGTGTG to GTACGCTA, the “PBM E-score” value falls from 0.119 to 0.0512.

Going from ACAGAAGA to CCGAATAA, the “PBM E-score” value rises from 0.152 to 0.156.

Compared with CCACAAAG, ACCCACAT is lower in “PBM E-score” value: -0.0409 for the first, -0.0894 for the second.

First: AGGGGATG
Second: AGATGCCG
The “PBM E-score” value of the first is higher: 0.00695 for the first, 0.0033 for the second.

Compared with AAGTAGGC, ACGATGGA is higher in “PBM E-score” value: -0.055 for the first, 0.22 for the second.

Compared with ACCGCGAG, TTAGTAAA is higher in “PBM E-score” value: -0.167 for the first, -0.00729 for the second.

Compared with GACTAGCC, CGGCCCAA is higher in “PBM E-score” value: -0.161 for the first, -0.144 for the second.

First: CGGAACCA
Second: ATTGATGA
The “PBM E-score” value of the first is lower: 0.129 for the first, 0.187 for the second.

Going from ACAACTAT to CATCTTAC, the “PBM E-score” value falls from 0.112 to 0.0554.

Going from TCTATAAA to CCCATGCA, the “PBM E-score” value falls from 0.0905 to -0.0547.

Compared with ACACTAGA, ATAGTCGA is lower in “PBM E-score” value: 0.156 for the first, 0.0241 for the second.

Going from CGGATATC to AGCATAGG, the “PBM E-score” value falls from 0.22 to -0.188.

Going from GCCATTAC to CAGGCCCC, the “PBM E-score” value falls from 0.0234 to -0.234.

Compared with CATTCCGG, CCAATATA is higher in “PBM E-score” value: -0.207 for the first, -0.02 for the second.

First: ACCTATCG
Second: ATGGCTTA
The “PBM E-score” value of the first is higher: 0.183 for the first, 0.0729 for the second.

First: TTCACGAA
Second: ACAAGGGG
The “PBM E-score” value of the first is higher: 0.267 for the first, -0.272 for the second.

Compared with TACTTTAA, AGGGCTTC is higher in “PBM E-score” value: -0.0873 for the first, 0.0312 for the second.

First: ATCAAGAT
Second: GGCCGATA
The “PBM E-score” value of the first is lower: -0.116 for the first, 0.0259 for the second.

First: CAGCAATA
Second: CCCCAGTC
The “PBM E-score” value of the first is higher: 0.057 for the first, -0.303 for the second.

First: AAGCTAGG
Second: GCTATAGC
The “PBM E-score” value of the first is higher: -0.232 for the first, -0.324 for the second.

Compared with AATAAGCT, ACCACCAT is lower in “PBM E-score” value: -0.00627 for the first, -0.113 for the second.

First: GCCCTTTA
Second: GCTTGTTA
The “PBM E-score” value of the first is lower: -0.206 for the first, 0.14 for the second.

First: CGTCTTGC
Second: GATTTAAA
The “PBM E-score” value of the first is higher: 0.0551 for the first, -0.00246 for the second.

Going from CGTCTTTA to ACCCCTTC, the “PBM E-score” value falls from 0.301 to -0.192.

First: CATCGCCG
Second: CCACCGGC
The “PBM E-score” value of the first is higher: -0.0204 for the first, -0.142 for the second.

Compared with GATTTTGC, GCGACACC is lower in “PBM E-score” value: -0.127 for the first, -0.189 for the second.

First: CCCTTGCC
Second: CCGGGAAC
The “PBM E-score” value of the first is lower: -0.191 for the first, -0.12 for the second.

Going from ATTCTTAA to ATCGGGTC, the “PBM E-score” value falls from 0.189 to -0.0582.

Compared with CAGCACTC, ACCTCCAC is higher in “PBM E-score” value: -0.222 for the first, -0.11 for the second.

Compared with GAGGACAC, ACTGATCT is higher in “PBM E-score” value: -0.21 for the first, 0.0694 for the second.
